Measurements published in the supplement of paper PMC4604168 (melanoma cell lines).
Some of the results follow. Repeats are few or missing, and single values can be far off.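 Imaging used 1,536-well plates; nuclei positive for cleaved PARP by antibody were divided by total DNA-stained nuclei to yield the apoptosis fraction. Doses for screening kept most cells viable, and cell lines differ markedly in resting and induced cleaved-PARP levels.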

How the values were obtained:
Assay in all cases: cleaved PARP positive nuclei fraction relative to DMSO control; melanoma cells; higher = more apoptosis
Conditions in all cases: library dose: low library concentration; 72 h
[1] = test system: 501Mel
[2] = test system: A101D
[3] = test system: A2058
[4] = test system: A375
[5] = test system: C32
[6] = test system: CBRC008 (line from a melanoma biopsy)
[7] = test system: CBRC013 (line from a melanoma biopsy)
[8] = test system: CBRC014 (line from a melanoma biopsy)
[9] = test system: CBRC016 (line from a melanoma biopsy)
[10] = test system: CBRC017 (line from a melanoma biopsy)
[11] = test system: COLO792
[12] = test system: COLO800
[13] = test system: COLO829
[14] = test system: G361
[15] = test system: IPC-298
[16] = test system: IST-MEL1
[17] = test system: LB2518-MEL
[18] = test system: LOXIMVI
[19] = test system: MEL-HO
[20] = test system: CBRC034 (line from a melanoma biopsy)

Compound	cleaved PARP positive nuclei fraction [1] [%]	cleaved PARP positive nuclei fraction [2] [%]	cleaved PARP positive nuclei fraction [3] [%]	cleaved PARP positive nuclei fraction [4] [%]	cleaved PARP positive nuclei fraction [5] [%]	cleaved PARP positive nuclei fraction [6] [%]	cleaved PARP positive nuclei fraction [7] [%]	cleaved PARP positive nuclei fraction [8] [%]	cleaved PARP positive nuclei fraction [9] [%]	cleaved PARP positive nuclei fraction [10] [%]	cleaved PARP positive nuclei fraction [11] [%]	cleaved PARP positive nuclei fraction [12] [%]	cleaved PARP positive nuclei fraction [13] [%]	cleaved PARP positive nuclei fraction [14] [%]	cleaved PARP positive nuclei fraction [15] [%]	cleaved PARP positive nuclei fraction [16] [%]	cleaved PARP positive nuclei fraction [17] [%]	cleaved PARP positive nuclei fraction [18] [%]	cleaved PARP positive nuclei fraction [19] [%]	cleaved PARP positive nuclei fraction [20] [%]
C[C@]1(O)C[C@@H](c2nc(-c3ccc4ccc(-c5ccccc5)nc4c3)c3c(N)nccn32)C1 + NCC(=O)Nc1ccc(-n2nc(C(F)(F)F)cc2-c2ccc3c(ccc4ccccc43)c2)cc1 [OSU03012] (first compound 0.4 µM, partner dose 1 µM)	178	76.7	51.1	8980	95.2	167	184	115	31.5	83.3	274	111	273	117	216	51.4	49.5	77.3	70.4	–
CCCCCCCCc1ccc(CCC(N)(CO)CO)cc1 [fingolimod] + C#Cc1cccc(Nc2ncnc3cc(OCCOC)c(OCCOC)cc23)c1 [erlotinib] (first compound 2 µM, partner dose 0.8 µM)	91.1	1000	92.6	666	72	61.8	–	102	89.1	113	114	116	70	160	145	132	103	147	73.9	117
Cn1sc(=O)n(Cc2ccccc2)c1=O + C[C@@H]1CCN(C(=O)CC#N)C[C@@H]1N(C)c1ncnc2[nH]ccc12 [CP690550] (first compound 0.4 µM, partner dose 1 µM)	33.5	86.3	49.1	56.5	231	93.1	121	84.7	65.9	87.5	131	45.7	146	131	120	97.8	143	74.1	59.4	–
CS(=O)(=O)c1ccc(C(=O)Nc2ccc(Cl)c(-c3ccccn3)c2)c(Cl)c1 [vismodegib] + O=C(CCCCCCC(=O)Nc1ccccc1)NO [vorinostat] (first compound 1 µM, partner dose 0.08 µM)	102	81	82.6	209	169	128	118	178	110	102	100	27.6	84.5	81.6	47	49.8	46.5	42.7	86.6	–
CC1(C)CCC(c2ccc(Cl)cc2)=C(CN2CCN(c3ccc(C(=O)NS(=O)(=O)c4ccc(N[C@H](CCN5CCOCC5)CSc5ccccc5)c(S(=O)(=O)C(F)(F)F)c4)cc3)CC2)C1 + CN(C)S(=O)(=O)c1ccc2c(c1)/C(=C/c1cc3c([nH]1)CCCC3)C(=O)N2 [SU6656] (first compound 0.4 µM, partner dose 0.4 µM)	77.5	231	150	204	1540	339	368	747	490	407	400	111	87.1	127	48.4	65.5	50.8	352	79.3	–
CCN(CC)CCNC(=O)c1c(C)[nH]c(/C=C2\C(=O)Nc3ccc(F)cc32)c1C [sunitinib] + OCCn1cc(-c2cnc3nnn(Cc4ccc5ncccc5c4)c3n2)cn1 [PF04217903] (first compound 0.4 µM, partner dose 1 µM)	77.2	72.5	64.4	344	41.4	144	230	71.9	104	87.1	83.2	71.2	70.8	66.9	96.1	51.2	34.9	19.5	37.2	–
Cn1sc(=O)n(Cc2ccccc2)c1=O + Nc1nc(F)nc2c1ncn2[C@@H]1O[C@H](CO)[C@@H](O)[C@@H]1O [fludarabine] (first compound 0.4 µM, partner dose 0.2 µM)	12700	59.2	245	5350	88.5	27.7	–	85.7	60.6	119	42.4	152	155	105	82.3	67.7	53.7	192	122	97.1
CC(=O)O[C@@]12CO[C@@H]1C[C@H](O)[C@@]1(C)C(=O)[C@H](O)C3=C(C)[C@@H](OC(=O)[C@H](O)[C@@H](NC(=O)OC(C)(C)C)c4ccccc4)C[C@@](O)([C@@H](OC(=O)c4ccccc4)[C@H]21)C3(C)C [Docetaxel] + C=CCn1c(=O)c2cnc(Nc3ccc(N4CCN(C)CC4)cc3)nc2n1-c1cccc(C(C)(C)O)n1 [MK1775] (first compound 0.0001 µM, partner dose 0.02 µM)	384	125	8180	5360	438	534	67.4	134	365	155	432	178	144	205	372	79.1	144	34.1	239	–
CS(=O)(=O)c1ccc(C(=O)Nc2ccc(Cl)c(-c3ccccn3)c2)c(Cl)c1 [vismodegib] + O=C(O)c1ccc2c(c1)nc(Nc1cccc(Cl)c1)c1ccncc12 [CX4945] (first compound 1 µM, partner dose 0.4 µM)	64.7	86.1	176	83.6	67.4	109	–	93.4	393	119	164	164	62.7	187	60.2	112	43.6	43	67.4	110
CS(=O)(=O)c1ccc(C(=O)Nc2ccc(Cl)c(-c3ccccn3)c2)c(Cl)c1 [vismodegib] + COc1cc2c(Oc3ccc4[nH]c(C)cc4c3F)ncnc2cc1OCCCN1CCCC1 [cediranib] (first compound 1 µM, partner dose 0.4 µM)	87.8	68.3	155	223	187	65.4	106	80	78.6	83.2	145	104	91.9	44.3	94.3	121	80.3	198	209	–
Cn1sc(=O)n(Cc2ccccc2)c1=O + Cc1ccc(NC(=O)c2cccc(N(C)C)c2)cc1NC(=O)c1ccc(O)cc1 [ZM336372] (first compound 0.4 µM, partner dose 2 µM)	416	87.8	111	112	99.6	76.9	62.8	130	109	92.8	124	65	106	114	105	158	213	115	76.8	–
CN(c1ncccc1CNc1nc(Nc2ccc3c(c2)CC(=O)N3)ncc1C(F)(F)F)S(C)(=O)=O + CN(C)S(=O)(=O)c1ccc2c(c1)/C(=C/c1cc3c([nH]1)CCCC3)C(=O)N2 [SU6656] (first compound 0.08 µM, partner dose 0.4 µM)	96.6	109	123	257	90.7	82.7	159	102	261	383	122	27.3	267	66.2	100	105	232	89.7	255	–
CCCCCCCCc1ccc(CCC(N)(CO)CO)cc1 [fingolimod] + COc1cc(Nc2ncc(F)c(Nc3ccc4c(n3)NC(=O)C(C)(C)O4)n2)cc(OC)c1OC [Tamatinib] (first compound 2 µM, partner dose 0.4 µM)	42.7	100	159	284	90.7	323	162	147	42	104	192	146	117	38.3	36.6	202	50.9	21.7	173	–
CCCCCCCCc1ccc(CCC(N)(CO)CO)cc1 [fingolimod] + CO[C@@H]1[C@H](N(C)C(=O)c2ccccc2)C[C@H]2O[C@]1(C)n1c3ccccc3c3c4c(c5c6ccccc6n2c5c31)C(=O)NC4 [Midostaurin] (first compound 2 µM, partner dose 0.08 µM)	107	188	75.5	95.4	64.8	107	77.2	101	79.2	158	64.4	50.1	56.1	109	47.4	192	26.6	142	49.5	–
CS(=O)(=O)c1ccc(C(=O)Nc2ccc(Cl)c(-c3ccccn3)c2)c(Cl)c1 [vismodegib] + CN(c1ncccc1CNc1nc(Nc2ccc3c(c2)CC(=O)N3)ncc1C(F)(F)F)S(C)(=O)=O [PF562271] (first compound 1 µM, partner dose 0.08 µM)	64.8	388	150	159	189	24.4	–	91.6	31.1	102	54.5	100	79.1	167	88.5	121	87.5	181	128	120
CCCCCCCCc1ccc(CCC(N)(CO)CO)cc1 [fingolimod] + CC(C)C[C@H](NC(=O)[C@H](Cc1ccccc1)NC(=O)c1cnccn1)B(O)O [Bortezomib] (first compound 2 µM, partner dose 0.001 µM)	1160	178	62.6	388	82.2	159	–	195	96.2	230	103	114	167	602	47.8	59.9	181	108	32.3	43.3

Reformatted: entries from further up.
Compound | cleaved PARP positive nuclei fraction [1] [%] | cleaved PARP positive nuclei fraction [2] [%] | cleaved PARP positive nuclei fraction [3] [%] | cleaved PARP positive nuclei fraction [4] [%] | cleaved PARP positive nuclei fraction [5] [%] | cleaved PARP positive nuclei fraction [6] [%] | cleaved PARP positive nuclei fraction [7] [%] | cleaved PARP positive nuclei fraction [8] [%] | cleaved PARP positive nuclei fraction [9] [%] | cleaved PARP positive nuclei fraction [10] [%] | cleaved PARP positive nuclei fraction [11] [%] | cleaved PARP positive nuclei fraction [12] [%] | cleaved PARP positive nuclei fraction [13] [%] | cleaved PARP positive nuclei fraction [14] [%] | cleaved PARP positive nuclei fraction [15] [%] | cleaved PARP positive nuclei fraction [16] [%] | cleaved PARP positive nuclei fraction [17] [%] | cleaved PARP positive nuclei fraction [18] [%] | cleaved PARP positive nuclei fraction [19] [%] | cleaved PARP positive nuclei fraction [20] [%]
CS(=O)(=O)c1ccc(C(=O)Nc2ccc(Cl)c(-c3ccccn3)c2)c(Cl)c1 [vismodegib] + O=C(O)c1ccc2c(c1)nc(Nc1cccc(Cl)c1)c1ccncc12 [CX4945] (first compound 1 µM, partner dose 0.4 µM) | 64.7 | 86.1 | 176 | 83.6 | 67.4 | 109 | – | 93.4 | 393 | 119 | 164 | 164 | 62.7 | 187 | 60.2 | 112 | 43.6 | 43 | 67.4 | 110
CS(=O)(=O)c1ccc(C(=O)Nc2ccc(Cl)c(-c3ccccn3)c2)c(Cl)c1 [vismodegib] + COc1cc2c(Oc3ccc4[nH]c(C)cc4c3F)ncnc2cc1OCCCN1CCCC1 [cediranib] (first compound 1 µM, partner dose 0.4 µM) | 87.8 | 68.3 | 155 | 223 | 187 | 65.4 | 106 | 80 | 78.6 | 83.2 | 145 | 104 | 91.9 | 44.3 | 94.3 | 121 | 80.3 | 198 | 209 | –
